Experimental data as given in doi:10.1101/2023.09.13.557610.
No constants are given. Whether binding was seen depends on the method and setting. Binding seen in cells or lysates may run through a third protein. Some entries that bind do so weakly or less than the wild type. For some of these results: Sequences can lack the tags named with a protein.

Protein sequences, listed by entry. Tags and fused reporters are not part of them. Residues count along the entry.
UniProt Q13586, residues 23-685: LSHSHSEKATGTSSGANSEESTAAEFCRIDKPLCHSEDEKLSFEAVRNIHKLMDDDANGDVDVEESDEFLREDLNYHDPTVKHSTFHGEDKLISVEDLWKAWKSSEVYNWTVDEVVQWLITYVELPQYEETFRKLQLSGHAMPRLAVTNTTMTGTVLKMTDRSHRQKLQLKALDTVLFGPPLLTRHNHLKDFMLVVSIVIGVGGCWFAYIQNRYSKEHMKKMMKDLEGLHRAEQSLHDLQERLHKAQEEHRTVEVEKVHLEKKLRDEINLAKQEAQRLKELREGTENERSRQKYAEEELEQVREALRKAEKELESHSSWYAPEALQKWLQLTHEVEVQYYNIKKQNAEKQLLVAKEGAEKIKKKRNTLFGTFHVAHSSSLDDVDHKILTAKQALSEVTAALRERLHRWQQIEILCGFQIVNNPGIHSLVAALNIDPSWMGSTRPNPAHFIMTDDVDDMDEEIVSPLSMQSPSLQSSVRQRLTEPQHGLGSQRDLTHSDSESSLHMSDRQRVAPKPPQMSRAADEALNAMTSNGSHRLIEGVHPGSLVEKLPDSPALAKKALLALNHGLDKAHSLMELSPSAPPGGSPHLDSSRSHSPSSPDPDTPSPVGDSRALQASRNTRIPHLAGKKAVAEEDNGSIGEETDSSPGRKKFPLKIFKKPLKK

Columns and labels:
Experiment in all cases: co-IP
[1] = target: DsRed2-CCDC47TM^MYC (human) (UniProt Q96A33)
[2] = target: T1, DsRed2-CCDC47_(full)^MYC (human) (UniProt Q96A33)
T1 sequence: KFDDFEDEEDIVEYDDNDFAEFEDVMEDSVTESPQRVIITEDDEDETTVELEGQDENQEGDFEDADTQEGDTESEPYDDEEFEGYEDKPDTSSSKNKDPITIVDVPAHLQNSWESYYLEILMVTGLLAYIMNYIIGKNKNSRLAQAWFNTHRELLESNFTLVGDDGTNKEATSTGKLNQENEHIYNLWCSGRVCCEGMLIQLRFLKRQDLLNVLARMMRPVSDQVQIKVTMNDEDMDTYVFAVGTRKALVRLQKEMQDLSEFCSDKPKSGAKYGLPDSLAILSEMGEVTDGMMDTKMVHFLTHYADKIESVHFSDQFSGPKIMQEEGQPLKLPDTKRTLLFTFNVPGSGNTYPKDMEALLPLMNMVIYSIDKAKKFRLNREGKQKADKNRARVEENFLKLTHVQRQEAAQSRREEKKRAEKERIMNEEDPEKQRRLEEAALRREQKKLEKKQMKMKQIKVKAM

[3] = target: DsRed2-CCDC47ΔCC^MYC (human) (UniProt Q96A33)
[4] = target: DsRed2-CCDC47_(ΔG+ΔCC)^MYC (human) (UniProt Q96A33)

Measured: binding

STIM1^mCherry (from UniProt Q13586 23-685)
binds: all assays above
